Data reported in patent publication US20250057912A1, “Compounds” (priority 2021, published 2025).
At least one compound was matched to its structure with a doubt left.

Tested on: Dextran Sodium Sulfate (DSS) induced ulcerative colitis
Assay: Mouse Dextran Sodium Sulfate (DSS) colitis model (Example 8)
Assay type: in vivo, C57BI/6 mice
Details: from day −2
[1] = 1250 nmol/kg p.o. per dose occasion
[2] = 10000 nmol/kg p.o. per dose occasion

With `CC[C@H](C)[C@@H]1NC(=O)[C@H](CC(=O)O)NC(=O)[C@H](CC(C)C)NC(=O)c2ccc(-c3ccc(N4CCN(C(=O)c5ccccc5-c5ccccc5C(=O)N5CCN(c6ccc(-c7ccc8cc7CNC(=O)[C@@H]7CCCN7[C@H](C(=O)NC(C)(C)C)[C@H](C)NC(=O)[C@H]([C@@H](C)CC)NC(=O)[C@H](CC(=O)O)NC(=O)[C@H](CC(C)C)NC8=O)cc6)CC5)CC4)cc3)c(c2)CNC(=O)[C@@H]2CCCN2[C@H](C(=O)NC(C)(C)C)[C@H](C)NC1=O` [Compound 1] the “body weight change score AUC compared with the DSS+vehicle group” value [1] was “significant reduction”, the “colon length compared with the DSS vehicle group” value [1] was “significantly increased” and the “whole colon Nishitani sum score compared with the DSS+vehicle group” value [1] was “significantly reduced”. For the same compound, the “whole colon inflammation severity score significantly reduced compared with the DSS+vehicle group” value [1] was “not”, the “DAI score AUC compared with the DSS+vehicle group” value [2] was “significant reduction” and the “body weight change score AUC compared with the DSS+vehicle group” value [2] was “significant reduction”. For the same compound, the “colon length compared with the DSS vehicle group” value [2] was “significantly increased”, the “whole colon Nishitani sum score compared with the DSS+vehicle group” value [2] was “significantly reduced” and the “whole colon inflammation severity score compared with the DSS+vehicle group” value [2] was “significantly reduced”.
